Source: US20150011001
Construct, isoform or probe ends are uncertain for at least one entry. The direction of at least one scale is not stated here. Tags and fusion partners may be left off the protein sequences shown.

Molecular target: T1, human RNase H1 (Homo sapiens) (UniProt O60930)
T1 sequence (looked up, limits assumed): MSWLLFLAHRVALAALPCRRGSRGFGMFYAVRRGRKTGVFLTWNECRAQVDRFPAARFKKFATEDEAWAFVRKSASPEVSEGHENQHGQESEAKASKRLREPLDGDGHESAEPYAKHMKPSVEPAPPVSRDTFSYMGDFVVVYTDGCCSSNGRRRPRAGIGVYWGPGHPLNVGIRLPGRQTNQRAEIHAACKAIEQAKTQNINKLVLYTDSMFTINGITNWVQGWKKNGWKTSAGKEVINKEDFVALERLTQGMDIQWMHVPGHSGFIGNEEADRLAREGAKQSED
Experiment: enzyme reaction in vitro
Details: 1 mM MgCl2, 37 C, purified recombinant protein, protein details: N-terminal His-tag, expressed in E. coli BL21(DE3), label: 5'-32P on RNA, DNA:RNA hybrid

For CTACGCTTTCCACGCACAGT [C11 2,4-F-tolyl], the activity signal (ratio V0 modified/unmodified) (2,4-difluorotoluoyl at position 11 of DNA strand) was 1.1.

For AGTTTAGGTCTCCGATCGTC [ISIS 359473], the activity signal (ratio V0 modified/unmodified) (2'-MOE at 1-5 and 16-20, tetrafluoroindole at 6) was 1.93.

In the case of CTACGCTTTCCACGCACAGT [T9 pseudo-U], the activity signal (ratio V0 modified/unmodified) (deoxypseudouridine at position 9 of DNA strand) was 1.2.

CTACGCTTTCCACGCACAGT [C10 abasic] was tested, and the activity signal (ratio V0 modified/unmodified) (abasic at position 10 of DNA strand) was 0.6.

With CTACGCTTTCCACGCACAGT [T7 2'-S-methyl] the activity signal (ratio V0 modified/unmodified) (2'-methylthiothymidine at position 7 of DNA strand) was 0.5.

With AGTTTAGGTCTCCGATCGTC [ISIS 366699] the activity signal (ratio V0 modified/unmodified) (2'-MOE at 1-5 and 16-20, tetrafluoroindole at 17) was 1.06.

With CTACGCTTTCCACGCACAGT [A12 propyl] the activity signal (ratio V0 modified/unmodified) (propyl linker replacing position 12 of DNA strand) was 0.5.

CTACGCTTTCCACGCACAGT [T9 2'-S-methyl] showed an activity signal (ratio V0 modified/unmodified) (2'-methylthiothymidine at position 9 of DNA strand) of 0.4.

Sequence CTACGCTTTCCACGCACAGT [T7 2'-ara-fluoro] has an activity signal (ratio V0 modified/unmodified) (2'-ara-fluoro at position 7 of DNA strand, multiple turnover) of 1.1.

With CTACGCTTTCCACGCACAGT [G14 ganciclovir] the activity signal (ratio V0 modified/unmodified) (ganciclovir at position 14 of DNA strand) was 0.4.

Work on AGTTTAGGTCTCCGATCGTC [ISIS 366694] yielded an activity signal (ratio V0 modified/unmodified) (2'-MOE at 1-5 and 16-20, 2,3,4,5-tetrafluorophenyl at 5) of 1.49.

For AGTTTAGGTCTCCGATCGTC [ISIS 366696], the activity signal (ratio V0 modified/unmodified) (2'-MOE at 1-5 and 16-20, tetrafluoroindole at 4, vs unmodified MOE gapmer) was 1.23.

CTACGCTTTCCACGCACAGT [T7 S2U] gave an activity signal (ratio V0 modified/unmodified) (2-thiouridine (S2T) at position 7 of DNA strand) of 0.5.

In the case of CTACGCTTTCCACGCACAGT [T9 2'-ara-fluoro], the activity signal (ratio V0 modified/unmodified) (2'-ara-fluoro at position 9 of DNA strand) was 1.1.

Work on CTACGCTTTCCACGCACAGT [T9 abasic] yielded an activity signal (ratio V0 modified/unmodified) (abasic at position 9 of DNA strand) of 0.6.

With CTACGCTTTCCACGCACAGT [T8 3'-methyl] the activity signal (ratio V0 modified/unmodified) (3'-methylthymidine at position 8 of DNA strand) was 0.8.

For CTACGCTTTCCACGCACAGT [G14 F-Me-ben], the activity signal (ratio V0 modified/unmodified) (2-fluoro-6-methylbenzoimidazole (table prints 4-F-6-Me-ben) at position 14 of DNA strand) was 0.8.

Sequence CTACGCTTTCCACGCACAGT [T8 2'-ara-fluoro] has an activity signal (ratio V0 modified/unmodified) (2'-ara-fluoro at position 8 of DNA strand) of 1.1.

Work on CTACGCTTTCCACGCACAGT [T7 3'-methyl] yielded an activity signal (ratio V0 modified/unmodified) (3'-methylthymidine at position 7 of DNA strand) of 0.8.
